In US12364771B2 (ProLynx LLC, priority 2019, dated 2025):

Assay: general procedure: Fmoc solid-phase peptide synthesis; Rink amide resin
Settings: whole synthesis, 280 nm

For “N^α-{4-Azido-3,3-dimethyl-1-[(N,N-dimethyl)aminosulfonyl]-2-butyloxycarbonyl}-[Gln^28]exenatide”, which “final HPLC purity” value is on record?
The value was 90.0%.
